# Assay results published in article doi:10.1101/2025.11.07.687187.
# By UniProt entry, the sequences of proteins in these tests, tags left out.
# UniProt Q9NX04: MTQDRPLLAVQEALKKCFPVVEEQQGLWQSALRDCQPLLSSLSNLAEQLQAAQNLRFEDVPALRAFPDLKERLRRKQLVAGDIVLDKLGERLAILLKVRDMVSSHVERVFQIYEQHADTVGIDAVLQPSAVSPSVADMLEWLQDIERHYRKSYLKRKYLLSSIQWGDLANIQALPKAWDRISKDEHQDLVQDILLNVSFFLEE
# No constants are given. Whether binding was seen depends on the method and setting. Binding seen in cells or lysates may run through a third protein. Here binding means that the protein was enriched with, or labelled near, the bait; the list need not be complete.
# Key:
# [1] = molecular target: T1, SPATA5 (human (endogenous in HCT116)) (UniProt Q8NB90); experiment: affinity purification with mass spectrometry
# T1 sequence: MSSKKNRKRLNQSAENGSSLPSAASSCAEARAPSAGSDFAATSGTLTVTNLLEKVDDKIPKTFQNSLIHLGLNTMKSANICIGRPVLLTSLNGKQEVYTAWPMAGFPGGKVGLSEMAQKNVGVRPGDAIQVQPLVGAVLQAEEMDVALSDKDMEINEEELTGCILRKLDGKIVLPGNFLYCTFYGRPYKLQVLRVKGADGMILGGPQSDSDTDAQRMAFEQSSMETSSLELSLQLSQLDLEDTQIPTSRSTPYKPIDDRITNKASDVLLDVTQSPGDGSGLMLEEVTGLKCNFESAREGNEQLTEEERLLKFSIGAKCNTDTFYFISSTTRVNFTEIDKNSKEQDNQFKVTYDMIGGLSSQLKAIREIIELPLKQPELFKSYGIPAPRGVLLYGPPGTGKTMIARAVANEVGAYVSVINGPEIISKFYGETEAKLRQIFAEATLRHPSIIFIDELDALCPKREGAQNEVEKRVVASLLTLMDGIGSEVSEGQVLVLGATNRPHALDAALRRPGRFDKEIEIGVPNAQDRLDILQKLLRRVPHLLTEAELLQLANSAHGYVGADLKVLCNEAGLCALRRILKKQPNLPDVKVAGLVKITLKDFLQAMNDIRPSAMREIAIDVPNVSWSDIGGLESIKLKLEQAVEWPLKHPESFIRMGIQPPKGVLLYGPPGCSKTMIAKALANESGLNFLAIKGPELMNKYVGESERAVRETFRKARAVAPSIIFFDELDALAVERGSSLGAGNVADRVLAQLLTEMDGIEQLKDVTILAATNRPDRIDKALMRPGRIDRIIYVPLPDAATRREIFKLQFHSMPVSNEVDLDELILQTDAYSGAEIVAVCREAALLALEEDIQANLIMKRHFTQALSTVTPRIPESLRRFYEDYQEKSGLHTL
# [2] = molecular target: T2, SPATA5L1 (human (endogenous in HCT116)) (UniProt Q9BVQ7); experiment: affinity purification with mass spectrometry
# T2 sequence: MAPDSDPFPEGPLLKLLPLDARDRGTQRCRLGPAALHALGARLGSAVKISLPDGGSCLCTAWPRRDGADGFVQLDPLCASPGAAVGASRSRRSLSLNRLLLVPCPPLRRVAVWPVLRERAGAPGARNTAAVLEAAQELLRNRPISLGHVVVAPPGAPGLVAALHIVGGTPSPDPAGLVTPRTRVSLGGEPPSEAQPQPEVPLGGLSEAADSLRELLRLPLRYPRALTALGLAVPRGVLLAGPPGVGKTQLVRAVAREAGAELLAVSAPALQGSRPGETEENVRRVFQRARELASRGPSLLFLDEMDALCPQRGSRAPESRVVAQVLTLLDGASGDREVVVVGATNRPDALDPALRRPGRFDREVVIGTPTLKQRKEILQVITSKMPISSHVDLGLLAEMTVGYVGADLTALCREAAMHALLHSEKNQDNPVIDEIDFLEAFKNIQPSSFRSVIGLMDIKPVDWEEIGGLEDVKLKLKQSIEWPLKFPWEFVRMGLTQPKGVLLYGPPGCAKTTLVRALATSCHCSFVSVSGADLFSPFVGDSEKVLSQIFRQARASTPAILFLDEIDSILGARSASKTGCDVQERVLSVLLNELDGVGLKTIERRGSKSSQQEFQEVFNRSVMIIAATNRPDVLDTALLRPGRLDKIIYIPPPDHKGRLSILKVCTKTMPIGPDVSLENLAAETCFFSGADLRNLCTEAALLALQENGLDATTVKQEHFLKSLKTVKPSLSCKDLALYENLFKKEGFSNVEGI
substance,measurement,setting,value
C1ORF109 (from UniProt Q9NX04 1-203),binding,[1],binds
same,binding,[2],binds
